Assay results taken from the supplement of paper PMC10849652.
This is one part of the list.

Sequences of proteins named here, by UniProt entry; tags and fusion partners are left off. A change or cut given only in a name is not applied to a line headed by its entry.
UniProt Q7L5N7: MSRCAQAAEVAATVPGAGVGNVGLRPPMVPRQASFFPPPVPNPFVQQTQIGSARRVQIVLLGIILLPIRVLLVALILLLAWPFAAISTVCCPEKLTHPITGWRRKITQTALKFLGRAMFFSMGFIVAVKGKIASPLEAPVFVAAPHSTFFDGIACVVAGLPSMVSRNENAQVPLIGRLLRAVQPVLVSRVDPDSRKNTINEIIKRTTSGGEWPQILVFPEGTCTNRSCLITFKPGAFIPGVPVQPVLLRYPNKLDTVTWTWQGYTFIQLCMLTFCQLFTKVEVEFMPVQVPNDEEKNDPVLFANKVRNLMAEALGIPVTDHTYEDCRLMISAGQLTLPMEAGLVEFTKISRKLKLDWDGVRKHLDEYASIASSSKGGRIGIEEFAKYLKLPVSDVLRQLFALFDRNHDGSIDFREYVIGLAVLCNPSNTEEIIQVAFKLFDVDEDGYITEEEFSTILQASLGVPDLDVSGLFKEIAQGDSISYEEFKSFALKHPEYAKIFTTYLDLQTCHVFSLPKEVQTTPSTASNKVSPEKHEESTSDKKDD
UniProt O60294: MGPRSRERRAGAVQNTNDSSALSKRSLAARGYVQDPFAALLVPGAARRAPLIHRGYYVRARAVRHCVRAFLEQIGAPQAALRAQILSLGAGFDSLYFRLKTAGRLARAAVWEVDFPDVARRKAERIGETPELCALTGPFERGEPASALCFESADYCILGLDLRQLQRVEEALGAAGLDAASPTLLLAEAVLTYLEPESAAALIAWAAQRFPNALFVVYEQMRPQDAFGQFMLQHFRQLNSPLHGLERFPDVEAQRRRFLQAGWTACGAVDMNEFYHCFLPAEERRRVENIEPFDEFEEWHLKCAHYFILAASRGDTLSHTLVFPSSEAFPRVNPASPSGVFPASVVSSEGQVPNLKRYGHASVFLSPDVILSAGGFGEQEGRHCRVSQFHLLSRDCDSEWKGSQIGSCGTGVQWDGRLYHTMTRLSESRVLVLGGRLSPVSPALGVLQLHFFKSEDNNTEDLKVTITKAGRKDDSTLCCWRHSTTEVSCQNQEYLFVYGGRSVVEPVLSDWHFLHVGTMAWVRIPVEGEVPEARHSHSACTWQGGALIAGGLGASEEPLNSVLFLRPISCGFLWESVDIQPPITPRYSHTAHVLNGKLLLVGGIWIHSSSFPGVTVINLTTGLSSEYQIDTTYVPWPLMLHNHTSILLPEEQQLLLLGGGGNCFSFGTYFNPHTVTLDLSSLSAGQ
UniProt P13473: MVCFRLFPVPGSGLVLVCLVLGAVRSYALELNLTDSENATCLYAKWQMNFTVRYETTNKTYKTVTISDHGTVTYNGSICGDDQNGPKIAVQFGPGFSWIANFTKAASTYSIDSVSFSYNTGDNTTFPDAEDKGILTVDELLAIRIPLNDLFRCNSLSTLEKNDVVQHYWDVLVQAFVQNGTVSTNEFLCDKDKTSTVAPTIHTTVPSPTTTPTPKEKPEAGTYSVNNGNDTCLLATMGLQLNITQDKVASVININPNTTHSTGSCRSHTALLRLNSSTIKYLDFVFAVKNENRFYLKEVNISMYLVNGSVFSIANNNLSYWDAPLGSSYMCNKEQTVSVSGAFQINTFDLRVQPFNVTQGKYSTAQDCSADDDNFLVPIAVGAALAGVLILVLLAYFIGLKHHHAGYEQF
UniProt Q96EK9: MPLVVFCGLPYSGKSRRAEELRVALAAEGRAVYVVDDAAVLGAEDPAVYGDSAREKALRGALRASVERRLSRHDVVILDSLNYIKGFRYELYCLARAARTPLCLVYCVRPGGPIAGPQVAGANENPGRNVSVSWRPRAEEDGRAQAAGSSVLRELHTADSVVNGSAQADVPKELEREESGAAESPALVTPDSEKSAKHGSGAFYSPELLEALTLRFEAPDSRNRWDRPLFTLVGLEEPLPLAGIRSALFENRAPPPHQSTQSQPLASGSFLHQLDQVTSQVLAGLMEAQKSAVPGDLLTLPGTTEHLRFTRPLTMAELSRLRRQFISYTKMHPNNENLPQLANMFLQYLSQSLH
UniProt P11279: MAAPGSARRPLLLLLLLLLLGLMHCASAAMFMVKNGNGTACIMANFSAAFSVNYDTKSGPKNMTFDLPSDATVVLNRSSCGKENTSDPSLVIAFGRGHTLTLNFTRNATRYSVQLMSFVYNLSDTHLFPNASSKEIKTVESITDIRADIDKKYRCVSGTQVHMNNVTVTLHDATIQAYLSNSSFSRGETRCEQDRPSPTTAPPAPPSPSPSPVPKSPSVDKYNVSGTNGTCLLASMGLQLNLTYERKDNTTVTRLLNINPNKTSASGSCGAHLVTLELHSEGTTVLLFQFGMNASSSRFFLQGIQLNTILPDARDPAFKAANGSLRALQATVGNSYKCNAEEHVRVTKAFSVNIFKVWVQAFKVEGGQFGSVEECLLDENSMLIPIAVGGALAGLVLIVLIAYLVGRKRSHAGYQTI
UniProt Q6ZV70: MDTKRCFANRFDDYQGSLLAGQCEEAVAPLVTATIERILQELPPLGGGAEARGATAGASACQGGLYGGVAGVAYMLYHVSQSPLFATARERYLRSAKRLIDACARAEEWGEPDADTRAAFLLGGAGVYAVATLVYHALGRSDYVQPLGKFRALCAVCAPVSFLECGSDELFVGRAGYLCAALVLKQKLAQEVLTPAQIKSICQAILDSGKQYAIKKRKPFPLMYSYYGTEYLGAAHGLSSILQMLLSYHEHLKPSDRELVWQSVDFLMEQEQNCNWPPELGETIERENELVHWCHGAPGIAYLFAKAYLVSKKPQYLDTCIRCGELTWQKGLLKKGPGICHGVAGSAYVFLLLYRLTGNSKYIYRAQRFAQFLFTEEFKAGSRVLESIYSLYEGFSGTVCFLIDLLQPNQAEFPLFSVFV
UniProt O14910: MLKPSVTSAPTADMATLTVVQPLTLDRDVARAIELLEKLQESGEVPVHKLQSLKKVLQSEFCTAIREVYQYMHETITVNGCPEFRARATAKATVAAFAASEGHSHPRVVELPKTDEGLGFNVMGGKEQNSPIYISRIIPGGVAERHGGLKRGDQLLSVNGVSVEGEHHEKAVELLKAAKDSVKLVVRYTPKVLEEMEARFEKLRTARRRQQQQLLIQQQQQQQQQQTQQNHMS
UniProt Q86U70: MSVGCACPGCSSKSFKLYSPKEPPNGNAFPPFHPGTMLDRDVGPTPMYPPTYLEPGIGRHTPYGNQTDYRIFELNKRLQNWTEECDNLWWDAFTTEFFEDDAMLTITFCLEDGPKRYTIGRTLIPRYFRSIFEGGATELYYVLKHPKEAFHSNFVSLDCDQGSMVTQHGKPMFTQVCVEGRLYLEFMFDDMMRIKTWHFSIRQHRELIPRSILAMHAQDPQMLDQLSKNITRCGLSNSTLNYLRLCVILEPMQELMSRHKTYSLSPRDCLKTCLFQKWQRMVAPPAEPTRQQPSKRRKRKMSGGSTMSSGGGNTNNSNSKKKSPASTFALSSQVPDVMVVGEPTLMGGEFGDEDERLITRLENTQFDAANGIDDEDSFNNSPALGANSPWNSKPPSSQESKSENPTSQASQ
UniProt Q8TCA0: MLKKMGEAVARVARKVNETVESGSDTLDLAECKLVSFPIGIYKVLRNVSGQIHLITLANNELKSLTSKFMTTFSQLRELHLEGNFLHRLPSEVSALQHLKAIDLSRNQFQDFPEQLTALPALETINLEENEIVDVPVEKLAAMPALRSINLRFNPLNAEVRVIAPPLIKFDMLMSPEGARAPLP
UniProt P36776: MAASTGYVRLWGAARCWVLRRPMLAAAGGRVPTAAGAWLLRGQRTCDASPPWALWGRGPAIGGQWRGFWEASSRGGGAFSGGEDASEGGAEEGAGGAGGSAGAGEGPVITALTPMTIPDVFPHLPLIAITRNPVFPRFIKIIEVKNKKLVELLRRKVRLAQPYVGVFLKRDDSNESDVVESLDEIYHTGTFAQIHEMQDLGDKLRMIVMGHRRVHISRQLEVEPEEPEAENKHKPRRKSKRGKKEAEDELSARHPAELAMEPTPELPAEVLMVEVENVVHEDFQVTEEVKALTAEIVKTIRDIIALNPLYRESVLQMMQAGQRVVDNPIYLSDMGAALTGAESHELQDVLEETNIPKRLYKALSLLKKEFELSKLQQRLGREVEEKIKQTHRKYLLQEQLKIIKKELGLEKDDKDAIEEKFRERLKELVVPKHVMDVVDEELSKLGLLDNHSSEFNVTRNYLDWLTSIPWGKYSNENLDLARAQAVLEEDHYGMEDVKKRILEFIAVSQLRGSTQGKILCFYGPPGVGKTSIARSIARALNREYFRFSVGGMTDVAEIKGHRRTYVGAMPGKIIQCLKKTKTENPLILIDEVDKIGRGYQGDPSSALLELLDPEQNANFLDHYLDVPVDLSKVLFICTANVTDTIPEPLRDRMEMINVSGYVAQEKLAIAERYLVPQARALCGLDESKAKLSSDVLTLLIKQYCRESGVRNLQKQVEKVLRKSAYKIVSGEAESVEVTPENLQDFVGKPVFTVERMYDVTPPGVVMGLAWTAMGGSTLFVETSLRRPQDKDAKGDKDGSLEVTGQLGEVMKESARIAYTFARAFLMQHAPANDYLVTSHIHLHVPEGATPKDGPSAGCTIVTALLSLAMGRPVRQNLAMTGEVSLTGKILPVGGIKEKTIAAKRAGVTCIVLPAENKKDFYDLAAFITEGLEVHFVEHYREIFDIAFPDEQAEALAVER

Assays:
Test in all cases: log2 fold change, soluble protein after heating vs DMSO (PISA); higher = thermal stabilisation; K562 cells, 10 uM, 30 min; active = over 0.2 and 3.5 SD of the protein, either way, in both replicates (recomputed)
[1] = compound: CS(=O)(=O)c1ccc(-c2cnc(N)c(C(=O)Nc3ccccc3)n2)cc1
In short: (§1)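 K562 cells at 2×10^6 cells/mL were given 10 μM compound for 30 min. Aliquots then went through 3 min of heating across 48°C-58°C, were pooled, and were extracted in PBS with 0.5% NP-40 at 4°C, and the supernatant after 21,000xg for 90 min was quantified by TMTpro 16plex LC-MS/MS with channel sums equalised. Thermal stability relative to control samples, from duplicates, is given as log2 fold change.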

crizotinib = compound: C[C@@H](Oc1cc(-c2cnn(C3CCNCC3)c2)cnc1N)c1c(Cl)ccc(F)c1Cl [crizotinib]
In short: as §1

[2] = compound: C[C@@H]1COCCN1C2=NC(=NC(=C2)C3(CC3)S(=O)(=O)C)C4=C5C=CNC5=CC=C4
In short: as §1

[3] = compound: C[C@H](C1=CC=C(C=C1)C(=O)NC2=C3C=CNC3=NC=C2)N
In short: as §1

duvelisib = compound: C[C@H](Nc1ncnc2nc[nH]c12)c1cc2cccc(Cl)c2c(=O)n1-c1ccccc1 [duvelisib]
In short: as §1

gandotinib = compound: Cc1cc(Nc2cc(CN3CCOCC3)c3nc(C)c(Cc4ccc(Cl)cc4F)n3n2)n[nH]1 [gandotinib]
In short: as §1

tozasertib = compound: Cc1cc(Nc2cc(N3CCN(C)CC3)nc(Sc3ccc(NC(=O)C4CC4)cc3)n2)n[nH]1 [tozasertib]
In short: as §1

[4] = compound: Cc1cc(SCc2sc(-c3ccc(C(F)(F)F)cc3)nc2C)ccc1OCC(=O)O
In short: as §1

doramapimod = compound: Cc1ccc(-n2nc(C(C)(C)C)cc2NC(=O)Nc2ccc(OCCN3CCOCC3)c3ccccc23)cc1 [doramapimod]
In short: as §1

ispinesib = compound: Cc1ccc(C(=O)N(CCCN)[C@@H](c2nc3cc(Cl)ccc3c(=O)n2Cc2ccccc2)C(C)C)cc1 [ispinesib]
In short: as §1

Measured: log2 fold change

LPCAT2 (UniProt Q7L5N7)
inactive: [1] 0.067 | crizotinib -0.022 | [2] 0.169 | [3] 0.139 | duvelisib 0.038 | gandotinib -0.028 | tozasertib 0.043 | [4] 0.034 | doramapimod 0.034 | ispinesib -0.141

LCMT2 (UniProt O60294)
inactive: [1] -0.03 | crizotinib -0.006 | [2] -0.032 | [3] -0.004 | duvelisib -0.09 | gandotinib 0.566 | [4] -0.022 | doramapimod 0.111

LAMP2 (UniProt P13473)
inactive: [1] 0.055 | crizotinib 0.043 | [2] 0.006 | [3] -0.051 | gandotinib -0.104 | [4] -0.062 | doramapimod -0.039 | ispinesib -0.001

LAMTOR5 (UniProt O43504)
inactive: [1] -0.111 | crizotinib -0.158 | [2] 0.226 | [3] 0.1 | duvelisib 0.149 | gandotinib -0.061 | tozasertib 0.142 | [4] -0.139 | doramapimod 0.13 | ispinesib 0.04

KTI12 (UniProt Q96EK9)
inactive: [1] 0.089 | crizotinib -0.16 | [2] 0.035 | [3] -0.042 | duvelisib -0.031 | gandotinib -0.079 | tozasertib -0.126 | [4] 0.033 | doramapimod 0.001 | ispinesib -0.084

LAMP1 (UniProt P11279)
inactive: [1] -0.025 | crizotinib -0.023 | [2] -0.002 | [3] -0.011 | duvelisib -0.074 | gandotinib -0.036 | tozasertib -0.03 | [4] -0.091 | doramapimod 0.059 | ispinesib 0.144

LANCL3 (UniProt Q6ZV70)
inactive: [1] 0.217 | crizotinib -0.023 | [2] 0.134 | [3] -0.049 | duvelisib -0.011 | [4] 0.197 | doramapimod -0.013

LIN7A (UniProt O14910)
inactive: [1] 0.023 | crizotinib -0.018 | [2] -0.06 | [3] -0.021 | duvelisib 0.096 | tozasertib 0.007 | [4] 0.061 | doramapimod -0.035 | ispinesib -0.023

LDB1 (UniProt Q86U70)
inactive: [1] -0.017 | crizotinib 0.033 | [2] -0.055 | [3] -0.017 | duvelisib 0.009 | gandotinib -0.002 | tozasertib -0.024 | [4] -0.038 | doramapimod 0.016 | ispinesib 0.04

LARP1 (UniProt Q6PKG0)
inactive: [1] -0.04 | crizotinib -0.097 | [2] -0.172 | [3] 0.134 | gandotinib 0.026 | [4] 0.01 | doramapimod 0.06 | ispinesib -0.166

LRRC20 (UniProt Q8TCA0)
inactive: [1] 0.042 | crizotinib 0.116 | [2] 0.217 | [3] -0.067 | duvelisib 0.04 | gandotinib -0.023 | tozasertib -0.047 | [4] -0.003 | doramapimod 0.079 | ispinesib 0.195

LONP1 (UniProt P36776)
inactive: [1] 0.027 | crizotinib 0.075 | [2] 0.035 | [3] -0.056 | duvelisib 0.021 | gandotinib -0.006 | tozasertib -0.016 | [4] -0.022 | doramapimod -0.028 | ispinesib 0.047
